PubChem BioAssay AID1259254, NCATS – 2017
In all, the deposit lists about 59,000 reagents; this is a part drawn at random. Over the whole deposit, about 1,550 (2.6%) were called active. 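G2 share is only a proxy for re-replication; each gene was hit by three separate siRNAs, and active genes were retested.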 Raw values vary from plate to plate and are shown uncorrected. The numbers tell different reagents against one gene apart. No sequences are given here. The record does not give: the amount of reagent.

- Purpose: 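Gene knock-downs that lead to re-replication, shown by excess G2 DNA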 (primary screen)
- Cells: human HCT116 colorectal cancer cells
- Reagent: single siRNA against human genes
- Duration: 3 days
- Measurement: 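Imaged Hoechst DNA stain sorts each cell into a cycle phase by DNA amount; per plate, G2 fraction set to 0% for non-targeting and 100% for GMNN siRNA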
- Reading the numbers: G2 robust z-score and G2 cells, % of GMNN control: higher = more G2 cells, more excess DNA replication; raw share of cells in G2: higher = larger share of cells with G2 DNA content
- Rule for the call: 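Active siRNAs have a G2 robust z of 5 or more median absolute deviations over the median, which in these data means about 38% or higher of GMNN control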

gene symbol | reagent no. | G2 robust z-score | G2 cells, % of GMNN control | raw share of cells in G2 (%) | Outcome
DEFB110 (GeneID 245913) | 1 | 0.584 | 7.08 | 6.14 | inactive
DEFB110 (GeneID 245913) | 2 | 0.123 | 3.84 | 4.44 | inactive
DEFB110 (GeneID 245913) | 3 | -0.565 | -1.01 | 2.87 | inactive
DEFB110 (GeneID 245913) | 4 | -0.734 | -2.2 | 2.78 | inactive
DEFB110 (GeneID 245913) | 5 | -0.874 | -3.18 | 2.04 | inactive
DEFB110 (GeneID 245913) | 6 | -0.899 | -3.36 | 2.12 | inactive
AHR (GeneID 196) | 1 | 2.78 | 22.6 | 12.4 | inactive
AHR (GeneID 196) | 2 | -1.15 | -5.12 | 3.25 | inactive
AHR (GeneID 196) | 3 | 0.915 | 9.41 | 7.49 | inactive
GK (GeneID 2710) | 1 | 0.381 | 5.65 | 6.02 | inactive
GK (GeneID 2710) | 2 | -0.73 | -2.17 | 4.89 | inactive
GK (GeneID 2710) | 3 | -0.272 | 1.06 | 5.77 | inactive
IL36RN (GeneID 26525) | 1 | -0.374 | 0.339 | 3.42 | inactive
IL36RN (GeneID 26525) | 2 | -0.45 | -0.201 | 4.34 | inactive
IL36RN (GeneID 26525) | 3 | 0.527 | 6.67 | 6.83 | inactive
CACNA1H (GeneID 8912) | 1 | 1.95 | 16.7 | 11.4 | inactive
CACNA1H (GeneID 8912) | 2 | -0.168 | 1.78 | 5.39 | inactive
CACNA1H (GeneID 8912) | 3 | -1.4 | -6.89 | 1.69 | inactive
SYT3 (GeneID 84258) | 1 | -0.522 | -0.702 | 3.41 | inactive
SYT3 (GeneID 84258) | 2 | 3 | 24 | 11.3 | inactive
SYT3 (GeneID 84258) | 3 | -0.875 | -3.19 | 4.47 | inactive
COPS3 (GeneID 8533) | 1 | 1.08 | 10.5 | 9.32 | inactive
COPS3 (GeneID 8533) | 2 | -0.135 | 2.02 | 5.43 | inactive
COPS3 (GeneID 8533) | 3 | 0.131 | 3.89 | 6.63 | inactive
KDELR1 (GeneID 10945) | 1 | -0.774 | -2.48 | 3.04 | inactive
KDELR1 (GeneID 10945) | 2 | -0.602 | -1.27 | 5.98 | inactive
KDELR1 (GeneID 10945) | 3 | -0.72 | -2.1 | 4.78 | inactive
SLC25A27 (GeneID 9481) | 1 | -0.196 | 1.59 | 3.74 | inactive
SLC25A27 (GeneID 9481) | 2 | -0.822 | -2.82 | 3.61 | inactive
SLC25A27 (GeneID 9481) | 3 | -0.498 | -0.534 | 5 | inactive
MPZL1 (GeneID 9019) | 1 | -1.11 | -4.82 | 2.98 | inactive
MPZL1 (GeneID 9019) | 2 | 4.12 | 31.9 | 16.5 | inactive
MPZL1 (GeneID 9019) | 3 | -0.549 | -0.892 | 4.13 | inactive
ANTKMT (GeneID 65990) | 1 | 0.451 | 6.14 | 7.36 | inactive
ANTKMT (GeneID 65990) | 2 | -0.128 | 2.07 | 3.24 | inactive
ANTKMT (GeneID 65990) | 3 | 0.0188 | 3.1 | 5.93 | inactive
MAGIX (GeneID 79917) | 1 | -0.566 | -1.01 | 2.1 | inactive
MAGIX (GeneID 79917) | 2 | -0.632 | -1.48 | 3.83 | inactive
MAGIX (GeneID 79917) | 3 | -0.749 | -2.3 | 3.3 | inactive
LRRC71 (GeneID 149499) | 1 | -0.598 | -1.24 | 3.41 | inactive
LRRC71 (GeneID 149499) | 2 | 0.163 | 4.12 | 4.18 | inactive
LRRC71 (GeneID 149499) | 3 | 0.885 | 9.2 | 6.27 | inactive
ZNF425 (GeneID 155054) | 1 | -0.59 | -1.19 | 2.68 | inactive
ZNF425 (GeneID 155054) | 2 | -0.619 | -1.39 | 2.68 | inactive
ZNF425 (GeneID 155054) | 3 | 1.48 | 13.4 | 8.22 | inactive
ZNF106 (GeneID 64397) | 1 | -0.7 | -1.96 | 4.84 | inactive
ZNF106 (GeneID 64397) | 2 | -0.789 | -2.58 | 3.43 | inactive
ZNF106 (GeneID 64397) | 3 | 4.62 | 35.5 | 17.1 | inactive

Taken from above:
KDELR1 (GeneID 10945) #1, G2 cells, % of GMNN control = -2.48
For “raw share of cells in G2 (%)”, SLC25A27 (GeneID 9481) #1 reads 3.74
SYT3 (GeneID 84258) #1, Outcome = inactive
Entry of MAGIX (GeneID 79917) #3 under “G2 cells, % of GMNN control”: -2.3
Under “G2 robust z-score”, AHR (GeneID 196) #2 has -1.15
